# Results are given in words; binding and its absence hold for the method and conditions named. Binding seen in cells or lysates may run through a third protein. These calls come from enrichment with a bait or labelling near it, and not all partners need be listed.
# Chains of the proteins cited; added tags and fusions are not shown.
# UniProt P49597: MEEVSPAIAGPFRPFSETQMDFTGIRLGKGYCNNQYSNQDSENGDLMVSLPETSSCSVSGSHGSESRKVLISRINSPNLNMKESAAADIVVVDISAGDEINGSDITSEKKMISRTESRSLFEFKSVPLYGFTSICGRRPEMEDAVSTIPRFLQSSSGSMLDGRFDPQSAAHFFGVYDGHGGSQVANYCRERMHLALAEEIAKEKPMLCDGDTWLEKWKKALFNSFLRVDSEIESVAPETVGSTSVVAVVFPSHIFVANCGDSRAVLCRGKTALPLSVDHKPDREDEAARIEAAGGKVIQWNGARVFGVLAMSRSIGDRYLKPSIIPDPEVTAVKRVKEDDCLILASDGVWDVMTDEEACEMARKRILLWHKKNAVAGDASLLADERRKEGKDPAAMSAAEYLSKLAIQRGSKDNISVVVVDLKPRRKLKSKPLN
# B1: PUB12 (endogenous) (enzyme, UniProt Q9ZV31 1-654)
# chain: MAKSEKHKLAQTLIDSINEIASISDSVTPMKKHCANLSRRLSLLLPMLEEIRDNQESSSEVVNALLSVKQSLLHAKDLLSFVSHVSKIYLVLERDQVMVKFQKVTSLLEQALSIIPYENLEISDELKEQVELVLVQLRRSLGKRGGDVYDDELYKDVLSLYSGRGSVMESDMVRRVAEKLQLMTITDLTQESLALLDMVSSSGGDDPGESFEKMSMVLKKIKDFVQTYNPNLDDAPLRLKSSLPKSRDDDRDMLIPPEEFRCPISLELMTDPVIVSSGQTYERECIKKWLEGGHLTCPKTQETLTSDIMTPNYVLRSLIAQWCESNGIEPPKRPNISQPSSKASSSSSAPDDEHNKIEELLLKLTSQQPEDRRSAAGEIRLLAKQNNHNRVAIAASGAIPLLVNLLTISNDSRTQEHAVTSILNLSICQENKGKIVYSSGAVPGIVHVLQKGSMEARENAAATLFSLSVIDENKVTIGAAGAIPPLVTLLSEGSQRGKKDAATALFNLCIFQGNKGKAVRAGLVPVLMRLLTEPESGMVDESLSILAILSSHPDGKSEVGAADAVPVLVDFIRSGSPRNKENSAAVLVHLCSWNQQHLIEAQKLGIMDLLIEMAENGTDRGKRKAAQLLNRFSRFNDQQKQHSGLGLEDQISLI
# Target: ABI1-Flag (Arabidopsis thaliana) (UniProt P49597)
# Experiment: affinity purification with mass spectrometry; ProABI1:ABI1-Flag transgenic seedlings; lysate on Flag-beads 2.5 h at 4 °C, elution with Flag peptide, LC-MS/MS
binder,measurement,value
B1,binding,binds

# — article PMC4667695
